Laboratory results: PubChem BioAssay AID2417 (National Center for Advancing Translational Sciences (NCATS), 2010)
Hit rate of the full screen: of about 140,000 compounds, about 4,300 (3.1%) were called active. Inconclusive means that the source gave no clear call. Such entries were picked first, then a sample of the others.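 How the source made its calls: active means readout at or below -70, meaning at least 70% loss of cells showing the perinucleolar compartment, a nuclear body marking cancer cells; inconclusive means readout between -30 and a set limit; inactive means the rest.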

Experiment: High Content Assay for Compounds that inhibit the Assembly of the Perinucleolar Compartment;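 further: plate controls were DMSO wells for no effect and camptothecin positive control wells for full effect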
Conditions: PC3M PTB-GFP, PNC prevalence imaging, 16 h; at 10 µM; stronger effect = lower value
Procedure, shortened: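 PC3M cells stably expressing PTB-GFP, 750–1000 cells/well, treated 16 h at 37 °C with compound (23 nl of library stock), in duplicate. After paraformaldehyde fixation and Hoechst stain, imaged at 20x; PNC prevalence scored by image analysis.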

| SMILES | activity change (PNC), negative = inhibition |
| --- | --- |
| Cc1ccc(-c2cc(C(=O)N/N=C/c3c[nH]c4ccccc34)n[nH]2)o1 | inconclusive: -34.9% |
| Cc1ccc(N2C(=O)C3C4C=CC(CNC(=S)Nc5cccc(Cl)c5)(O4)C3C2=O)cc1 (stereo unspecified) | inactive: -11.7% |
| CCCCOc1ccc(N(CC(=O)NC2CCCC2)C(=O)CCC(=O)Nc2ccccn2)cc1 | inconclusive: -77.5% |
| COc1ccc(CCNC(=O)CN2CCC(C)CC2)cc1OC | inactive: 29.2% |
| CN1CCN(S(=O)(=O)c2ccc(Br)s2)CC1 | inactive: -12.3% |
| Cc1ccc(S(=O)(=O)N2CCN(S(=O)(=O)N3CCOCC3)CC2)cc1C | inactive: -28.7% |
| CCOC(=O)c1c(/N=C/N(C)C)sc(/C=N/Nc2ccccc2)c1-c1ccc(Cl)cc1 | inconclusive: -71.9% |
| CC(C)C(=O)Nc1ccc(C(=O)NNC(=O)CCCOc2ccc(Cl)cc2Cl)cc1 | inconclusive: -50.6% |
| CCS(=O)(=O)N1N=C(c2ccc(NS(C)(=O)=O)cc2)CC1c1ccccc1 (stereo unspecified) | inconclusive: -66.5% |
| CCOc1cc2[nH]c(=S)n(CCN3CCCCC3C)c(=O)c2cc1OCC (stereo unspecified) | inconclusive: -49.4% |
| Clc1ccc(-c2nnc3cccc(Cl)n23)c(Cl)c1 | inconclusive: -43.2% |
| O=C(NNS(=O)(=O)c1ccccc1C(F)(F)F)c1cccc(S(=O)(=O)Nc2ccccc2Cl)c1 | inconclusive: -32.4% |
| COc1ccc(-n2nc3ccccc3n2)cc1 | inactive: 14.4% |
| Cc1ccc(-c2nc(C)sc2CC(=O)Nc2cccc(C)c2C)cc1 | inconclusive: -69.5% |
| O=C(CN1CCN(Cc2ccccc2)CC1)c1ccc(Br)cc1 | inactive: 23.6% |
| CC(=O)Nc1ccc(C(=O)N/N=C/c2ccccc2OC(=O)c2ccc(Cl)cc2)cc1 | inconclusive: -42.3% |
| N#CC(c1ccc(F)cc1)c1ccc(C(=O)c2ccccc2)cc1 (stereo unspecified) | inconclusive: -48.7% |
| Cn1c(=O)[nH]c(=O)c2c1nc(N1CCCCCC1)n2Cc1cccc2ccccc12 | inactive: -20.1% |
| Cc1ccnc(NS(=O)(=O)c2ccc(NC(=O)c3ccc(N4C(=O)CCC4=O)cc3)cc2)n1 | inconclusive: -34.1% |
| Cc1cc2ccccc2n1CCNC(=O)C(C)Oc1ccccc1 (stereo unspecified) | active: -108% |
| O=C(CCS(=O)(=O)c1cccc2nonc12)Nc1cccc2c1CCCC2 | inconclusive: -47.8% |
| Cc1cc(NC(=O)CSc2nc(C(C)C)nc3sc4c(c23)CCCC4)no1 | inconclusive: -35.9% |

| SMILES | activity change (PNC), negative = inhibition |
| --- | --- |
| CC(C)c1ccc(C(=O)N(c2ccccn2)C(C)c2ccco2)cc1 (stereo unspecified) | inconclusive: -43.6% |
| CCc1nc(NC(C)C)c2oc3ccccc3c2n1 | active: -93.8% |
| O=C(Nc1ccc(Cl)cn1)c1cc(S(=O)(=O)N2CCCCC2)ccc1Cl | inactive: -16.4% |
| CCOC(=O)c1ccc(N2Cc3ccccc3C2)cc1O | inconclusive: -67.3% |
| O=C(Nc1ccc(Cc2ccncc2)cc1)C1CCC(N2C(=O)C3C4C=CC(C4)C3C2=O)CC1 (stereo unspecified) | inconclusive: -61.8% |
| C/C(=N\NC(=O)C1(C)CC1(Br)Br)c1ccc(NC(=O)C2CCC2)cc1 (stereo unspecified) | inactive: 12.7% |
| N#Cc1ccsc1NC(=O)COC(=O)c1cc2ccccc2cc1O | inconclusive: -51.9% |
| O=C(COC(=O)c1ccc(=O)n(Cc2ccccc2)n1)Nc1ccc2c(c1)OCCO2 | inactive: -9.49% |
| Cc1ncc(N=Nc2ccc(F)cc2)c(-c2ccc(Cl)cc2)n1 | inactive: 42.9% |
| CC(=O)N(Cc1ccccc1)c1ccc(C(=O)O)cc1 | active: -85% |
| O=C(COc1ccc2c(c1)CCC2)N1CCN(c2ccccc2F)CC1 | inconclusive: -33.3% |
| Cc1cc(Nc2ccc(Br)cc2)n2nc(C)nc2n1 | inconclusive: -71% |
| Cc1csc(NC(=O)C2CCN(C(=O)CSc3nnc(C)n3Cc3ccccc3)CC2)n1 | inactive: -29.5% |
| Cc1ccc(C)c(S(=O)(=O)N2CCN(CC(=O)Nc3cc(C)on3)CC2)c1 | inconclusive: -55.8% |
| Cc1cnc(C(=O)Nc2ccccc2-c2ccc(C)o2)cn1 | inconclusive: -36.9% |
| CCC(Oc1ccc(C)c(C)c1)C(=O)O (stereo unspecified) | inconclusive: -79.3% |
| COCCOc1cc(Nc2nnc(C(F)(F)F)s2)c(Cl)cc1Cl | inconclusive: -30.4% |
| [O-]/C(=C(\C(=S)NCc1ccco1)[n+]1ccccc1)c1ccccc1Br | inactive: 77.5% |
| O=C(NCC(=O)N(CC1CCCO1)C(C(=O)NC1CCCC1)c1cccnc1)c1ccco1 (stereo unspecified) | inconclusive: -45.5% |
| Cc1cccc(-n2c(C)cc(C=C3C(=O)c4ccccc4C3=O)c2C)c1 | active: -84.6% |
| Cc1cccc(OCC(=O)Nc2cc(C)c(C)cc2O)c1 | inconclusive: -37.4% |
| CCCN(CCC)S(=O)(=O)c1ccc(C(=O)NNc2nc(-c3ccccc3)c3cc(Br)ccc3n2)cc1 | inactive: -13.2% |

| SMILES | activity change (PNC), negative = inhibition |
| --- | --- |
| CC1(C)CC(=O)/C(=C\c2cccc([N+](=O)[O-])c2)C(C)(C)N1 | inconclusive: -37.6% |
| COCc1nc2ccccc2n1CCCOc1ccccc1 | active: -106% |
| O=c1[nH]nc(Cc2ccc(-c3ccc(Cl)cc3)o2)c2ccccc12 | inconclusive: -49.2% |
| CN1C/C(=C/c2ccsc2)C(=O)/C(=C/c2ccsc2)C1 | inconclusive: -34% |
| CCCC(=O)C1=C(O)C(C(=O)OC)C(C)(C)CC1=NC (stereo unspecified) | inconclusive: -38.8% |
| COc1cccc(CNC(=O)C2CCN(S(=O)(=O)N3CCCC3)CC2)c1 | inconclusive: -46.3% |
| CCOc1ccc(N=Nc2c(N)[nH][nH]c2=O)cc1 | inconclusive: -53.6% |
| Cc1nc(-c2ccc(NC(=O)c3ccccc3Br)cc2)cs1 | inactive: 30.4% |
| CC(C)c1nc(SCC(=O)Nc2cccc(C(F)(F)F)c2)c2c(=O)n(C)c(=O)n(C)c2n1 | inconclusive: -74.5% |
| CCOc1ccc(NC(=O)N(CCC(C)C)C2CCN(C(C)=O)CC2)cc1 | inconclusive: -40.9% |
| COC(=O)c1ccc(Cl)c(NC(=O)CN(c2ccccc2)S(=O)(=O)c2ccc(OC)cc2)c1 | inconclusive: -44.5% |
| C#CCn1cc(/C=N/Nc2nc3ccccc3[nH]2)c2ccccc21 | inactive: -12.5% |
| COc1ccccc1CN(CC(=O)NCC1CCCO1)C(=O)CNS(=O)(=O)c1ccc(C)cc1 (stereo unspecified) | inactive: 20.7% |
| Cc1nnc(SCCn2c(Br)nc3c2c(=O)n(C)c(=O)n3C)s1 | inconclusive: -31.3% |
| COc1ccc(C(C)(C)C)cc1NC(=O)c1cc(S(=O)(=O)N(C)C)ccc1N1CCCC1 | inactive: -0.56% |
| COc1ccccc1N1CCN(C(=O)C2CCN(S(=O)(=O)c3ccccc3)CC2)CC1 | inconclusive: -35.6% |
| COc1ccc2oc(C(F)(F)C(F)(F)F)cc(=O)c2c1 | inconclusive: -76.9% |
| CC(/C=N/Nc1nnc(C)c(=O)[nH]1)=C\c1ccccc1 | inactive: 78.7% |
| Cc1ccc(SCc2[nH]nc3c2C(c2ccco2)C(C#N)=C(N)O3)cc1 (stereo unspecified) | inactive: 5.57% |
| Cc1cccc(Cn2ncc(Cl)c(Cl)c2=O)c1 | inactive: 22.8% |
| Cc1ccc(S(=O)(=O)c2cc3c(=O)n4ccccc4nc3n(C)c2=N)cc1 | inconclusive: -44.7% |
| Cc1ccc(N2C(=O)C3N=NN(CC(=O)N4N=C(c5cccc6ccccc56)CC4c4ccccc4)C3C2=O)cc1 (stereo unspecified) | inconclusive: -50.7% |

Some values from the results shown.
activity change (PNC), negative = inhibition with Cc1cccc(-n2c(C)cc(C=C3C(=O)c4ccccc4C3=O)c2C)c1 is entered as active: -84.6%
activity change (PNC), negative = inhibition with Cc1ccc(C)c(S(=O)(=O)N2CCN(CC(=O)Nc3cc(C)on3)CC2)c1 is entered as inconclusive: -55.8%
activity change (PNC), negative = inhibition with CCCC(=O)C1=C(O)C(C(=O)OC)C(C)(C)CC1=NC (stereo unspecified) is entered as inconclusive: -38.8%
activity change (PNC), negative = inhibition with CN1CCN(S(=O)(=O)c2ccc(Br)s2)CC1 is entered as inactive: -12.3%

Carrying on:

| SMILES | activity change (PNC), negative = inhibition |
| --- | --- |
| Cn1c(Cn2nnc3ccccc32)nnc1SCC(=O)N1c2ccccc2CCc2ccccc21 | inactive: 3.03% |
| CCC(CC)C(=O)NC12CC3CC(CC(C3)C1)C2 | inconclusive: -61.6% |
| O=C(CN1CCC(N2CCCCC2)CC1)N1CCCc2ccccc21 | inconclusive: -34% |
| Cc1ccc(C(=O)NCCNc2ccc(Cl)cc2[N+](=O)[O-])o1 | inactive: -0.597% |
| O=C(NC1CCCCCCC1)C1CCN(c2nc3ccccc3o2)CC1 | inconclusive: -42.2% |
| NC1=NC(=O)/C(=C\C=C\c2ccccc2)S1 | inconclusive: -50.7% |
| CCOC(=O)c1c(-c2ccccc2)csc1NC(=S)NC(=O)c1ccccc1 | inconclusive: -50.6% |
| Cc1ccc(C)c(NC(=O)C2CC=CCC2C(=O)O)c1 (stereo unspecified) | inactive: -14.9% |
| CCOCCOC(=O)C1=C(C)NC2=C(C(=O)CC(c3cccs3)C2)C1c1ccsc1 (stereo unspecified) | inconclusive: -30.1% |
| CC(=O)Nc1c(C(=O)c2ccccc2)oc2ccccc12 | inconclusive: -57.3% |
| O=C(CSc1cccc[n+]1[O-])Nc1cc(S(=O)(=O)N2CCOCC2)ccc1Cl | active: -88.3% |
| O=c1[nH]c2ccc(S(=O)(=O)Nc3ccc(-c4nnc5n4CCCCC5)cc3)cc2o1 | inconclusive: -30.1% |
| Cn1c(=O)oc2cc(S(=O)(=O)N3CCC(C(=O)N4CCc5ccccc5C4)CC3)ccc21 | inconclusive: -36% |
| Cc1ccc(S(=O)(=O)N2CCC(=O)N(C(COCc3cccc(C(F)(F)F)c3)Cc3ccccc3)CC2)cc1 (stereo unspecified) | inactive: 58.9% |
| CCOC(=O)c1cnn(-c2ccccc2)c1-n1cccc1C(=O)C(=O)Nc1ccccc1 | inactive: -24.1% |
| COc1ccc(-c2noc(CSc3nc4ccccc4c(=O)n3-c3ccccc3)n2)cc1 | inconclusive: -42.7% |
| N#CC(c1ccccc1)N(CCCCl)C(=O)c1ccc(Br)cc1 (stereo unspecified) | inconclusive: -61.1% |
| Cc1ccccc1S(=O)(=O)Nc1nc2ccccc2nc1NCCO | inconclusive: -32.9% |
| CCOC(=O)C1CCN(S(=O)(=O)c2c(C)n(C)c(=O)n(C)c2=O)CC1 | inconclusive: -36.6% |
| CN1CCN(S(=O)(=O)c2ccc(N(C)Cc3cccs3)nc2)CC1 | inconclusive: -71.5% |
